Test results as given in the supplement of paper PMC10735217.
Where a name gives a salt, the structure may show the parent alone. The list shows a part of the results. Repeats in this data set agree poorly, so a single value says little.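 Human kidney-derived cells stably carry a construct in which eight TEAD-binding elements drive luciferase, measured by luminescence in a drug-repurposing library screen. A hit is any compound whose signal exceeds the plate mean by more than five robust Z scores.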

Tested on: HEK293A TEAD-LUC reporter
Assay: TEAD-luciferase reporter activity (YAP activation), robust Z score vs plate; higher = stronger YAP/TEAD activation
Settings: 24 h

| Structure (SMILES) | TEAD-luciferase reporter activity (compound concentration: 200 nM) | TEAD-luciferase reporter activity (compound concentration: 2 uM) | TEAD-luciferase reporter activity (compound concentration: 10 uM) |
| --- | --- | --- | --- |
| Nc1c(Cl)cc(-c2nn(C3CCN(CCc4ccccc4)CC3)c(=O)o2)c2c1OCCO2 [Capeserod hydrochloride] | inactive: 0.724 | inactive: -0.52 | inactive: 1.8 |
| CCCCS(=O)(=O)Nc1ccccc1C(=O)N[C@H](CC)c1ccc(OC)nc1 | inactive: -0.448 | inactive: 0.535 | inactive: -0.995 |
| CC(O)c1ccc(S(=O)(=O)NC(=O)NC2CCCCC2)cc1 (configuration not stated) | inactive: 0.637 | inactive: 1.86 | inactive: 1.05 |
| CCOCCn1nc(C(=O)NS(=O)(=O)CC)c2nc(N(C)CC)nc(Nc3cc(C)ccn3)c21 | inactive: -1.41 | inactive: 0.402 | inactive: -0.538 |
| CN1C(=S)SC(c2ccccc2)N(C)C1c1ccccc1 (configuration not stated) | inactive: -1.88 | inactive: -1.49 | inactive: -1.78 |
| O=c1[nH]c(CCl)nc2sc3c(c12)CCCC3 | inactive: -1.18 | inactive: -0.3 | inactive: 0.912 |
| c1ccc2c(c1)CCCc1cc(NCCN3CCOCC3)nnc1-2 | inactive: -0.473 | inactive: -0.265 | inactive: -0.0414 |
| COc1ccc(N(Cc2cccnc2)c2cccc(C(=O)O)c2)cc1OC1CCCC1 | inactive: 0.405 | inactive: 0.948 | inactive: 1.46 |
| Cc1cn(C2CC(N=[N+]=[N-])C(COP(=O)(O)OCC3CCC(n4cnc5c(=O)[nH]cnc54)O3)O2)c(=O)[nH]c1=O (configuration not stated) | inactive: -1.41 | inactive: 1.96 | inactive: 2.18 |
| CN(C)CCSc1ccc(/C=c2\[nH]c(=O)/c(=C/c3ccccc3)[nH]c2=O)s1 | inactive: 4.33 | inactive: 1.02 | active: 12.2 |
| O=C(O)Cc1ccc2c(c1)OCc1ccccc1C2=O | inactive: 0.0144 | inactive: 0.988 | inactive: 1.04 |
| CCCc1c(COc2ccc(Cc3nnn[nH]3)cc2)ccc(C(C)=O)c1O | inactive: -0.897 | inactive: -2.06 | inactive: 1.8 |
| Cc1cc(-c2ccccc2)nnc1NCCN1CCOCC1 [minaprine] | inactive: 1.69 | inactive: -1.72 | inactive: 1.6 |
| Nc1ncnc2c1ncn2CC(O)CF (configuration not stated) | inactive: 1.11 |  | active: 8.11 |
| Nc1ncnc2c1ncn2CC(O)CF (configuration not stated) [metabolite of FPMPA] |  | inactive: -0.698 |  |
| C[C@H]1C[C@H]2[C@@H]3CCC4=CC(=O)C=C[C@]4(C)[C@@]3(F)[C@@H](O)C[C@]2(C)[C@@]1(O)C(=O)COP(=O)(O)O [betamethasone phosphate] | inactive: 0.82 | inactive: -0.916 | inactive: 1.1 |
| O=C(O)c1cc(-c2ccc(F)cc2F)ccc1O | inactive: 0.445 | inactive: 0.694 | inactive: -1.57 |
| CNC(=O)n1ccc2cc(Oc3ccnc(NC(=O)c4ccc(C5CCN(CCO)CC5)cc4)c3)c(OCCOC)cc21 | inactive: -1.25 | inactive: -1.32 | inactive: -0.675 |
| CC[C@@]1(O)C(=O)OCc2c1cc1n(c2=O)Cc2c-1nc1cc3c(cc1c2CN1CCN(C)CC1)OCCO3 | inactive: -1.48 | inactive: -1.6 | inactive: -1.63 |
| O=C([O-])C1=C(C[n+]2ccc(CCS(=O)(=O)[O-])cc2)CS[C@@H]2[C@H](NC(=O)[C@H](NC(=O)c3nc[nH]c3C(=O)O)c3ccccc3)C(=O)N12 [Cefpimizole Disodium Salt] | inactive: -1.77 | inactive: -1.06 | inactive: 0.322 |
| CCCn1c(=O)c(C(=O)NNC(=O)C(C)C)c(O)c2ccccc21 | inactive: -0.496 | inactive: 1.81 | inactive: -0.208 |
| O=C(c1ccccc1Nc1ccncc1)N1CCCCC1 [ofornine] | inactive: 0.71 | inactive: -1.43 | inactive: -0.311 |
| CC(C)NNC(=O)COc1ccc(Cl)cc1 | inactive: 0.462 | inactive: -1.86 | inactive: -0.309 |
| CCCCNc1c2c(nc3ccccc13)CC(C)(C)CC2O (configuration not stated) | inactive: -1.15 | inactive: -0.72 | inactive: 0.0913 |
| O=C(c1ccc(-c2nc(C3CC3)no2)cc1)N1CCCC2CCCC21 (configuration not stated) | inactive: -3.1 | inactive: 0.0615 | inactive: -0.612 |
| CC(C)(Oc1ccc(C2CCCc3ccccc32)cc1)C(=O)O (configuration not stated) [Nafenopin] | inactive: -0.993 |  | inactive: 4.36 |
| CC[C@H](C)[C@H](NC(=O)[C@H](CO)NC(=O)[C@H](C)NC(=O)[C@H](CC(=O)O)NC(=O)[C@H](CC(C)C)NC(=O)[C@H](CO)NC(=O)[C@@H](N)[C@@H](C)O)C(=O)N[C@H](C(=O)N[C@@H](Cc1c[nH]c2ccccc12)C(=O)N[C@@H](C)C(=O)N[C@@H](CCSC)C(=O)N[C@@H](CCSC)C(=O)N[C@@H](CCC(N)=O)C(=O)N[C@@H](CC(N)=O)C(=O)O)[C@@H](C)CC [Disitertide] | inactive: -1.37 | inactive: 1.2 | inactive: 0.0615 |
| Cc1onc(-c2ccc(F)cc2)c1COc1ccc(C(=O)N2CCS(=O)(=O)CC2)cn1 [Basmisanil] | inactive: -0.827 | inactive: 0.884 | active: 11.1 |

Some of the entries above in a different format.
Structure (SMILES) | TEAD-luciferase reporter activity (compound concentration: 200 nM) | TEAD-luciferase reporter activity (compound concentration: 2 uM) | TEAD-luciferase reporter activity (compound concentration: 10 uM)
Nc1c(Cl)cc(-c2nn(C3CCN(CCc4ccccc4)CC3)c(=O)o2)c2c1OCCO2 [Capeserod hydrochloride] | inactive: 0.724 | inactive: -0.52 | inactive: 1.8
CCCCS(=O)(=O)Nc1ccccc1C(=O)N[C@H](CC)c1ccc(OC)nc1 | inactive: -0.448 | inactive: 0.535 | inactive: -0.995
CC(O)c1ccc(S(=O)(=O)NC(=O)NC2CCCCC2)cc1 (configuration not stated) | inactive: 0.637 | inactive: 1.86 | inactive: 1.05
CCOCCn1nc(C(=O)NS(=O)(=O)CC)c2nc(N(C)CC)nc(Nc3cc(C)ccn3)c21 | inactive: -1.41 | inactive: 0.402 | inactive: -0.538
CN1C(=S)SC(c2ccccc2)N(C)C1c1ccccc1 (configuration not stated) | inactive: -1.88 | inactive: -1.49 | inactive: -1.78
O=c1[nH]c(CCl)nc2sc3c(c12)CCCC3 | inactive: -1.18 | inactive: -0.3 | inactive: 0.912
c1ccc2c(c1)CCCc1cc(NCCN3CCOCC3)nnc1-2 | inactive: -0.473 | inactive: -0.265 | inactive: -0.0414
COc1ccc(N(Cc2cccnc2)c2cccc(C(=O)O)c2)cc1OC1CCCC1 | inactive: 0.405 | inactive: 0.948 | inactive: 1.46
Cc1cn(C2CC(N=[N+]=[N-])C(COP(=O)(O)OCC3CCC(n4cnc5c(=O)[nH]cnc54)O3)O2)c(=O)[nH]c1=O (configuration not stated) | inactive: -1.41 | inactive: 1.96 | inactive: 2.18
CN(C)CCSc1ccc(/C=c2\[nH]c(=O)/c(=C/c3ccccc3)[nH]c2=O)s1 | inactive: 4.33 | inactive: 1.02 | active: 12.2
O=C(O)Cc1ccc2c(c1)OCc1ccccc1C2=O | inactive: 0.0144 | inactive: 0.988 | inactive: 1.04
CCCc1c(COc2ccc(Cc3nnn[nH]3)cc2)ccc(C(C)=O)c1O | inactive: -0.897 | inactive: -2.06 | inactive: 1.8
Cc1cc(-c2ccccc2)nnc1NCCN1CCOCC1 [minaprine] | inactive: 1.69 | inactive: -1.72 | inactive: 1.6
Nc1ncnc2c1ncn2CC(O)CF (configuration not stated) | inactive: 1.11 |  | active: 8.11
Nc1ncnc2c1ncn2CC(O)CF (configuration not stated) [metabolite of FPMPA] |  | inactive: -0.698 | 

Next part.

| Structure (SMILES) | TEAD-luciferase reporter activity (compound concentration: 200 nM) | TEAD-luciferase reporter activity (compound concentration: 2 uM) | TEAD-luciferase reporter activity (compound concentration: 10 uM) |
| --- | --- | --- | --- |
| COc1ccccc1C(=O)N1CCC(N2CCCC2=O)CC1 | inactive: -0.352 |  | inactive: 0.118 |
| O=C1c2ccccc2C(=O)C1c1ccc(Cl)cc1 | inactive: -0.669 | inactive: -0.21 | inactive: 0.249 |
| O=C1CCCC(=O)C1C(=O)c1ccc(C(F)(F)F)cc1[N+](=O)[O-] [nitisi] | inactive: -1.41 | inactive: -1.38 | inactive: 1.16 |
| c1ccc(C(CCN2CCCCC2)c2ccccc2)cc1 | inactive: 1.28 | inactive: 1.09 | inactive: 0.247 |
| CC1(C)CCC2=C(O1)c1ccccc1C(=O)C2=O [beta-Lapachone] | inactive: -0.048 | inactive: -0.943 | inactive: -0.166 |
| CS(=O)(=O)c1ccc(-c2cc(C#N)nn2-c2ccc(F)cc2)cc1 | inactive: -0.261 | inactive: -2.46 | inactive: -1.48 |
| COc1cc(OC)cc(N(CCNC(C)C)c2ccc3ncc(-c4cnn(C)c4)nc3c2)c1 [Erdafitinib] | inactive: -1.22 | inactive: -0.831 | inactive: -1.24 |
| CN1CCOC(c2ccccc2)c2ccccc2C1 (configuration not stated) [nefopam] | inactive: -0.716 | inactive: -0.588 | inactive: 0.518 |
| O=C(/C=C\n1cnc(-c2cc(C(F)(F)F)cc(C(F)(F)F)c2)n1)NNc1cnccn1 [Selinexor] | active: 5.68 |  | inactive: 0.533 |
| C[C@@H](c1nc(-c2ccc(C#N)cc2)cs1)C(O)(Cn1cncn1)c1ccc(F)cc1F (some centres not stated) [Ravuconazole] | inactive: -1.11 | inactive: 0.289 | inactive: -1.19 |
| O=C(NCCO[N+](=O)[O-])c1cccnc1 | inactive: -1.39 |  | inactive: 0.0933 |
| O=C(NCCO[N+](=O)[O-])c1cccnc1 [nicorandil] |  | inactive: -1.99 |  |
| CCn1c(-c2c(Cl)cc(O)cc2Cl)cc2c(Cl)cc(O)cc21 | inactive: -1.66 | inactive: 2.49 | active: 5.03 |
| Cc1cc(COc2ccc([C@]3(N)CCN([C@H](CC(C)C)C(=O)NO)C3=O)cc2)c2ccccc2n1 | inactive: 2.64 | inactive: -0.161 | inactive: -0.286 |
| CNC(=O)c1cnc2n1CCc1ccccc1C21CCNCC1 | inactive: -1.05 | inactive: -0.227 | inactive: 0.0557 |
| CC(C)Cc1ccc([C@@H](C)C(=O)NS(C)(=O)=O)cc1 [Reparixin] | inactive: -0.53 | inactive: 0.5 | inactive: 0.454 |
| Cc1ccc2c(c1)C(OC1CCN(C)CC1)c1ccccc1CS2 (configuration not stated) | inactive: -1.13 | inactive: -0.553 | inactive: 0.0911 |
| CCCCC1=NC2(CCCC2)C(=O)N1Cc1ccc(-c2ccccc2-c2nnn[nH]2)cc1 [Irbesartan] | inactive: -1.13 |  | inactive: -0.0231 |
| CCCCC1=NC2(CCCC2)C(=O)N1Cc1ccc(-c2ccccc2-c2nnn[nH]2)cc1 [diabetic nephropathy therapy, Dimerix] |  | inactive: -0.0521 |  |
| CCC(=O)O[C@]1(C(=O)SCCl)[C@H](C)C[C@H]2C3C[C@H](F)C4=CC(=O)C=CC4(C)[C@@]3(F)[C@@H](O)CC21C (some centres not stated) | inactive: -0.64 | inactive: 1.11 | inactive: 2.66 |
| N#Cc1ccc2[nH]c(O)c(-c3ccc(CN4CCOCC4)cn3)c2c1 | inactive: -1.52 | inactive: -1.31 | inactive: -1.7 |
| COc1cc(F)cc2c1-c1ccc(F)cc1C21NC(=O)NC1=O (configuration not stated) | inactive: -0.981 | inactive: -0.769 | inactive: -0.324 |
| NC1(c2ccc(-c3nc4ccn5c(=O)[nH]nc5c4cc3-c3ccccc3)cc2)CCC1 | inactive: -0.689 | inactive: 2.35 | inactive: 2.38 |
| O=C(C1CCCC1)N1CCC(C(=O)N2CCC(c3ccccc3)CC2)CC1 | inactive: 2.45 |  | inactive: -0.752 |
| OC(CCCN1CCC(O)(c2ccc(Cl)cc2)CC1)c1ccc(F)cc1 (configuration not stated) | inactive: -0.575 | inactive: 0.672 | inactive: 0.326 |
| C[C@@H](NC(=O)[C@@H](CCCNC(=N)N)NC(=O)C(c1ccccc1)c1ccccc1)c1ccc(O)cc1 | inactive: -2.37 | inactive: 0.0416 | inactive: -0.493 |
| Nc1nccc(-c2c(-c3ccc(F)cc3)ncn2C2CCNCC2)n1 | inactive: -1.26 | inactive: -2.26 | inactive: -0.779 |
